Measured values from US10889625B2, “Peptide-based methods for treating neurological injury” (THE REGENTS OF THE UNIVERSITY OF COLORADO, a body corporate, priority 2016, dated 2021).
“Also recorded” adds a separate entry of the source. Part of at least one peptide drawing is inferred or uncertain, most often the ends. Residues, ends and D or L forms follow the SMILES beside them.

Chains of the proteins cited; added tags and fusions are not shown. Lines headed by an entry give the natural chain unless they say otherwise; changes in a name come on top.
UniProt O94759, whole entry: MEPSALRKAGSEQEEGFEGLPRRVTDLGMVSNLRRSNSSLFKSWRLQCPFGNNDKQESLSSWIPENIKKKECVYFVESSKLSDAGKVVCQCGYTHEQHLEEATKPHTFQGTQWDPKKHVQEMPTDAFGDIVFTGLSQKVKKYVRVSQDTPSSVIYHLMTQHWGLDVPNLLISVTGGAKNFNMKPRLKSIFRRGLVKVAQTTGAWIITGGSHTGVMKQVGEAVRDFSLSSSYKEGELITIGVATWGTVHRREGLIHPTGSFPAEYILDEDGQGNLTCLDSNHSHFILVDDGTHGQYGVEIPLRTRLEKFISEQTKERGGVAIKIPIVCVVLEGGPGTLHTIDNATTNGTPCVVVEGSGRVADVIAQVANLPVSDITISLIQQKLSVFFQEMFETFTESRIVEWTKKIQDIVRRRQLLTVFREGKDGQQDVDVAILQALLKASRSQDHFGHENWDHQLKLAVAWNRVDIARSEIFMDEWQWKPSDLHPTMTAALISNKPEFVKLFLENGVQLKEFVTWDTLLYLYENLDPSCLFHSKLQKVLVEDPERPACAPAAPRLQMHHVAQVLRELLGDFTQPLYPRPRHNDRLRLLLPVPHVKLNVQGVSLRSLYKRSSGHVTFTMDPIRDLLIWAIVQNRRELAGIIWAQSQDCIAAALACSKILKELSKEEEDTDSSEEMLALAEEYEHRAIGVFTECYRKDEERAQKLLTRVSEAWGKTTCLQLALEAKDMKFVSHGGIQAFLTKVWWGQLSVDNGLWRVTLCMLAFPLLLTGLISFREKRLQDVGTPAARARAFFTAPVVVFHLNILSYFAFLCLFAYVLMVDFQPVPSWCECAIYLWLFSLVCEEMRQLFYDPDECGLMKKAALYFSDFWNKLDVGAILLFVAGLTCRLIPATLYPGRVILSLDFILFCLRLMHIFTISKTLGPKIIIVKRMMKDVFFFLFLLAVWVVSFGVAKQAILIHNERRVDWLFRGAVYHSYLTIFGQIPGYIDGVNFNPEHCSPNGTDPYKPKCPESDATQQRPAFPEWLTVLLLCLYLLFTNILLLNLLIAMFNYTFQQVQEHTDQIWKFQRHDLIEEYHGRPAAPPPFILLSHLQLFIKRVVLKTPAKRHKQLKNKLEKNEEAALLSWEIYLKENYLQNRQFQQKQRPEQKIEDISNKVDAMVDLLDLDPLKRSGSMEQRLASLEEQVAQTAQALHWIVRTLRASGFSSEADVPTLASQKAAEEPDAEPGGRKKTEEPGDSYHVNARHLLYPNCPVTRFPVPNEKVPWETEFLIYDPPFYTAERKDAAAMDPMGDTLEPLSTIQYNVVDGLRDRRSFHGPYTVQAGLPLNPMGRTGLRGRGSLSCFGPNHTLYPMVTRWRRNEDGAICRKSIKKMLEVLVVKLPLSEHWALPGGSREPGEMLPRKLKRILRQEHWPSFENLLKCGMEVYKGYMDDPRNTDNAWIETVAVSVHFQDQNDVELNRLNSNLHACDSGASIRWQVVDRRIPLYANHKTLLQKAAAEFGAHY
UniProt Q91YD4: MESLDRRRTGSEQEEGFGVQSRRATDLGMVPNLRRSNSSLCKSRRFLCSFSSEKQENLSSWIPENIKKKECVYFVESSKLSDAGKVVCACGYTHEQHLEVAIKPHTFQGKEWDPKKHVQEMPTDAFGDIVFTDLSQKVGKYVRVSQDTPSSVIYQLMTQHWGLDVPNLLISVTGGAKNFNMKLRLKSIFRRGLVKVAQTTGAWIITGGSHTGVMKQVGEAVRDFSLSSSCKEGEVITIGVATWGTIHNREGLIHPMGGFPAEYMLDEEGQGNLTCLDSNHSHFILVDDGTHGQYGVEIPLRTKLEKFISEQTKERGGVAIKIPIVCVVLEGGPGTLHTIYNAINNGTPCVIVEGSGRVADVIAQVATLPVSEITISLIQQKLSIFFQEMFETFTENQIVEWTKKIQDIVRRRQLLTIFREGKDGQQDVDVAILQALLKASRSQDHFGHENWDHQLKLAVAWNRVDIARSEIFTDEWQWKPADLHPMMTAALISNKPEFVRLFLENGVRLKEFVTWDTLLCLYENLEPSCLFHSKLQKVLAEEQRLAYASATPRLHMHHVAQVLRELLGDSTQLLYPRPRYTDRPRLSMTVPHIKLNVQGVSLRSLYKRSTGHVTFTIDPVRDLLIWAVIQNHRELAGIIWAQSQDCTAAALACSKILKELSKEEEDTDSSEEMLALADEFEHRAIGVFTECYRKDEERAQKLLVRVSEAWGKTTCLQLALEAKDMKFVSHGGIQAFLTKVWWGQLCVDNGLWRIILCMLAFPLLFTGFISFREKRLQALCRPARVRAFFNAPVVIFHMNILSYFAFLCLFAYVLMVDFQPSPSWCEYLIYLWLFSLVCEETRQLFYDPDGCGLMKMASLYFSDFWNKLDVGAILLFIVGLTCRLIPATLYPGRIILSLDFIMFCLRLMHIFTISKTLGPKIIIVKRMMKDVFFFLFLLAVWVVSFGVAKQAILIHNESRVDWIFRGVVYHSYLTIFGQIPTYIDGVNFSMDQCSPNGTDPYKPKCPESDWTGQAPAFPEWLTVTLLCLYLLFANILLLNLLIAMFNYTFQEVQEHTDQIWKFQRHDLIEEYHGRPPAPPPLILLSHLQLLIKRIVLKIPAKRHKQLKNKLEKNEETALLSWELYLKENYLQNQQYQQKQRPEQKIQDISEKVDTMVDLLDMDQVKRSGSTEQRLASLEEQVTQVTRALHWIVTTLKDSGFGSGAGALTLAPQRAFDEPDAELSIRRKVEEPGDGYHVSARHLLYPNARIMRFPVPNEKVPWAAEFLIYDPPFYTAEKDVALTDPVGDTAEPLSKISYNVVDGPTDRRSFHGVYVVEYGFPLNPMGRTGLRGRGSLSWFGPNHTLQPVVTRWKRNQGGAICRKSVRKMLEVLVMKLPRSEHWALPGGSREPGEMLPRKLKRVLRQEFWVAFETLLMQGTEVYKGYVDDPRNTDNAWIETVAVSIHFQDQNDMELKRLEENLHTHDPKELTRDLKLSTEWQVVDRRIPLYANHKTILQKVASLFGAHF

Columns and labels:
human TRPM2 channel = molecular target: T1, human TRPM2 channel (Homo sapiens, UniProt O94759); test: H2O2-induced Ca2+ influx (Fluo-5F) in HEK-293 cells expressing hTRPM2; assay type: cell-based; conditions: 200 μM H2O2, hTRPM2 HEK-293
T1 construct: expressed in transfected cells

TRPM2 channels [1] = molecular target: T2, TRPM2 channels (Mus musculus, UniProt Q91YD4); test: CA/CPR, ischemic CA1 neurons (H&E) 3 days after resuscitation; assay type: in vivo, mice; set-up: from tissue; host or cells: mouse brain in vivo; acute hippocampal/brain slices from mice
TRPM2 channels [2] = molecular target: T2, TRPM2 channels; test: LTP in acute post-CA/CPR hippocampal slices, inhibitor applied to slices; conditions: slices incubated 2 hours in 1 μM
TRPM2 channels [3] = molecular target: T2, TRPM2 channels; test: Beta-amyloid-induced decrease in synaptic plasticity in brain slices; assay type: cell-based, mice; set-up: from tissue; host or cells: mouse brain in vivo; acute hippocampal/brain slices from mice; conditions: brain slices exposed to amyloid beta
TRPM2 channels [4] = test: 60 min tMCAO infarct volume in TRPM2-/- mice; assay type: in vivo; conditions: male TRPM2-/- mice
TRPM2 channels [5] = molecular target: T2, TRPM2 channels; test: Contextual fear conditioning after CA/CPR; assay type: in vivo; set-up: from tissue; host or cells: mouse brain in vivo; acute hippocampal/brain slices from mice; conditions: CA/CPR mice, peptide on day 7, test on day 8

CSCC[C@H](NC(=O)[C@H](CCC(=O)O)NC(=O)CNC(=O)[C@@H]1CCCN1C(=O)[C@H](CCC(=O)O)NC(=O)[C@H](CCCNC(=N)N)NC(=O)[C@H](CO)NC(=O)CNC(=O)[C@H](CCCNC(=N)N)NC(=O)[C@H](CCCNC(=N)N)NC(=O)[C@H](CCCNC(=N)N)NC(=O)[C@H](CCC(N)=O)NC(=O)[C@H](CCCNC(=N)N)NC(=O)[C@H](CCCNC(=N)N)NC(=O)[C@H](CCCCN)NC(=O)[C@H](CCCCN)NC(=O)[C@H](CCCNC(=N)N)NC(=O)CNC(=O)[C@@H](N)Cc1ccc(O)cc1)C(=O)N[C@@H](CC(C)C)C(=O)N1CCC[C@H]1C(=O)N[C@@H](CCCNC(=N)N)C(=O)N[C@@H](CCCCN)C(=O)N[C@@H](CC(C)C)C(=O)N[C@@H](CCCCN)C(=O)N[C@@H](CCCNC(=N)N)C(=O)N[C@H](C(=O)N[C@@H](CC(C)C)C(=O)N[C@@H](CCCNC(=N)N)C(=O)N[C@@H](CCC(N)=O)C(=O)N[C@@H](CCC(=O)O)C(=O)N[C@@H](Cc1ccccc1)C(=O)N[C@@H](Cc1c[nH]c2ccccc12)C(=O)N[C@H](C(=O)O)C(C)C)C(C)C [tat-M2NX] (H-YGRKKRRQRRRGSREPGEMLPRKLKRVLRQEFWV-OH; N-terminus and C-terminus assumed)
H2O2-induced Ca2+ influx (Fluo-5F fluorescence) (human TRPM2 channel; 100 μM peptide, 2 hrs incubation): reduced H2O2-induced Ca^2+ influx | Ca2+ influx, concentration dependence (human TRPM2 channel; 25, 50 and 100 μM): concentration-dependent decrease in Ca^2+ influx | ischemic CA1 neuronal injury (TRPM2 channels [1]; female mice, 20 mg/kg iv 30 minutes after resuscitation): no effect on injury | ischemic CA1 neurons (TRPM2 channels [1]; male mice, 20 mg/kg iv 30 minutes after resuscitation from 8 min cardiac arrest): 20.0±5.1% | synaptic plasticity in post-ischemic slices (TRPM2 channels [2]): reversal of deficit | beta-amyloid-induced decrease in synaptic plasticity (TRPM2 channels [3]): protected against beta-amyloid-induced decrease in synaptic plasticity | infarct volume (TRPM2 channels [4]): did not further reduce infarct volume | freezing behavior / memory function (contextual fear conditioning) (TRPM2 channels [5]): improves memory function; also recorded: increased freezing
